Experimental data: PubChem BioAssay AID1259254 (NCATS, 2017)
This is an unselected part of about 59,000 reagents tested. About 1,550 of them (2.6%) were called active. 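G2 share is only a proxy for re-replication; each gene was hit by three separate siRNAs, and active genes were retested.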 The raw values are shown without normalisation. Reagents against one gene are numbered here. The record does not give: the amount of reagent.

Test: 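Genome-wide screen for genes that prevent DNA re-replication in cancer cells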 (primary screen)
System: human HCT116 colorectal cancer cells
Reagent: single siRNA against human genes
Time to read-out: 3 days
Measured: 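Nuclei stained with Hoechst and imaged; cell-cycle phase assigned by DNA content; G2 share scaled per plate, non-targeting siRNA 0%, GMNN siRNA 100%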
Direction: G2 robust z-score and G2 cells, % of GMNN control: higher = more G2 cells, more excess DNA replication; raw share of cells in G2: higher = larger share of cells with G2 DNA content
Hit rule: 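Active siRNAs have a G2 robust z of 5 or more median absolute deviations over the median, which in these data means about 38% or higher of GMNN control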

gene	reagent no.	G2 robust z-score	G2 cells, % of GMNN control	raw share of cells in G2 (%)	outcome
MPND (GeneID 84954)	1	-0.498	-0.533	3.86	inactive
MPND (GeneID 84954)	2	0.507	6.53	5.05	inactive
MPND (GeneID 84954)	3	0.068	3.45	4.02	inactive
AMPD3 (GeneID 272)	1	5.51	41.8	18.9	active
AMPD3 (GeneID 272)	2	-0.353	0.485	5.25	inactive
AMPD3 (GeneID 272)	3	-0.515	-0.655	3.75	inactive
MEIS1 (GeneID 4211)	1	-0.588	-1.17	2.81	inactive
MEIS1 (GeneID 4211)	2	-0.134	2.02	6.27	inactive
MEIS1 (GeneID 4211)	3	0.533	6.72	7.96	inactive
SLC6A19 (GeneID 340024)	1	1.24	11.7	8.56	inactive
SLC6A19 (GeneID 340024)	2	0.811	8.67	8.34	inactive
SLC6A19 (GeneID 340024)	3	-0.113	2.18	6.84	inactive
TNFSF11 (GeneID 8600)	1	-0.709	-2.02	3.62	inactive
TNFSF11 (GeneID 8600)	2	1.02	10.2	8.83	inactive
TNFSF11 (GeneID 8600)	3	-1.04	-4.33	3.16	inactive
OR6K3 (GeneID 391114)	1	1.28	11.9	8.15	inactive
OR6K3 (GeneID 391114)	2	-0.963	-3.81	2.01	inactive
OR6K3 (GeneID 391114)	3	-0.877	-3.21	3.46	inactive
SLC36A4 (GeneID 120103)	1	2.07	17.5	11.1	inactive
SLC36A4 (GeneID 120103)	2	1.45	13.2	7.26	inactive
SLC36A4 (GeneID 120103)	3	-0.322	0.7	2.02	inactive
NUDT8 (GeneID 254552)	1	-0.96	-3.79	1.83	inactive
NUDT8 (GeneID 254552)	2	0.794	8.55	5.92	inactive
NUDT8 (GeneID 254552)	3	-0.618	-1.38	3.08	inactive
RSKR (GeneID 124923)	1	1.08	10.6	8.33	inactive
RSKR (GeneID 124923)	2	0.658	7.6	5.59	inactive
RSKR (GeneID 124923)	3	-0.262	1.13	2.15	inactive
RSKR (GeneID 124923)	4	0.528	6.68	6.3	inactive
RSKR (GeneID 124923)	5	1.63	14.5	8.59	inactive
RSKR (GeneID 124923)	6	1.18	11.3	6.63	inactive

The list goes on, starting with the last 4 of the part before.
gene	reagent no.	G2 robust z-score	G2 cells, % of GMNN control	raw share of cells in G2 (%)	outcome
RSKR (GeneID 124923)	3	-0.262	1.13	2.15	inactive
RSKR (GeneID 124923)	4	0.528	6.68	6.3	inactive
RSKR (GeneID 124923)	5	1.63	14.5	8.59	inactive
RSKR (GeneID 124923)	6	1.18	11.3	6.63	inactive
LINC01547 (GeneID 84536)	1	-0.709	-2.02	1.79	inactive
LINC01547 (GeneID 84536)	2	-0.424	-0.0157	4.1	inactive
LINC01547 (GeneID 84536)	3	0.496	6.46	5.37	inactive
LINC01547 (GeneID 84536)	4	-0.521	-0.698	3.88	inactive
LINC01547 (GeneID 84536)	5	0.0938	3.63	4.53	inactive
LINC01547 (GeneID 84536)	6	0.065	3.43	3.44	inactive
FATE1 (GeneID 89885)	1	-0.0665	2.5	3.72	inactive
FATE1 (GeneID 89885)	2	6.25	46.9	24	active
FATE1 (GeneID 89885)	3	-0.4	0.157	3.05	inactive
GYPE (GeneID 2996)	1	-0.239	1.28	4.03	inactive
GYPE (GeneID 2996)	2	0.479	6.34	8.28	inactive
GYPE (GeneID 2996)	3	0.45	6.13	6.33	inactive
FGD3 (GeneID 89846)	1	-0.519	-0.684	5.35	inactive
FGD3 (GeneID 89846)	2	-0.967	-3.84	3.32	inactive
FGD3 (GeneID 89846)	3	-0.212	1.48	5.04	inactive
DDX3Y (GeneID 8653)	1	0.129	3.87	6.09	inactive
DDX3Y (GeneID 8653)	2	-1.32	-6.32	3.04	inactive
DDX3Y (GeneID 8653)	3	0.307	5.13	6.87	inactive
